Data from article PMC10158027.

By UniProt entry, the sequences of proteins in these tests, tags left out.
UniProt Q86U44: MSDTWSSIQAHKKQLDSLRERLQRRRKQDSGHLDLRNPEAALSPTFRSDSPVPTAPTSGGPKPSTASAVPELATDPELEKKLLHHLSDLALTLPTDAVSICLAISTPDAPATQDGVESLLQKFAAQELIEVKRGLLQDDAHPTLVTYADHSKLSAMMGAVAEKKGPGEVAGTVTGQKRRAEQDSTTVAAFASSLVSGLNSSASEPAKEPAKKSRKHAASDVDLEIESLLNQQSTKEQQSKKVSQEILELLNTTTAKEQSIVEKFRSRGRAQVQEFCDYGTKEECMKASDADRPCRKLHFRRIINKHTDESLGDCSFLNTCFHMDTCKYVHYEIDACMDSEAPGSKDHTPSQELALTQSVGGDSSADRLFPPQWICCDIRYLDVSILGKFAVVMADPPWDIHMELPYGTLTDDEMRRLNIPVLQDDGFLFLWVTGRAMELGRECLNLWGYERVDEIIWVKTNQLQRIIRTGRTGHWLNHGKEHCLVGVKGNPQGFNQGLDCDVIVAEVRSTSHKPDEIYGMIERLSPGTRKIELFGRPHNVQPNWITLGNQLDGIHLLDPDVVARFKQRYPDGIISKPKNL

Target: T1, USP13 (human (endogenous in OS cells)) (UniProt Q92995)
T1 sequence: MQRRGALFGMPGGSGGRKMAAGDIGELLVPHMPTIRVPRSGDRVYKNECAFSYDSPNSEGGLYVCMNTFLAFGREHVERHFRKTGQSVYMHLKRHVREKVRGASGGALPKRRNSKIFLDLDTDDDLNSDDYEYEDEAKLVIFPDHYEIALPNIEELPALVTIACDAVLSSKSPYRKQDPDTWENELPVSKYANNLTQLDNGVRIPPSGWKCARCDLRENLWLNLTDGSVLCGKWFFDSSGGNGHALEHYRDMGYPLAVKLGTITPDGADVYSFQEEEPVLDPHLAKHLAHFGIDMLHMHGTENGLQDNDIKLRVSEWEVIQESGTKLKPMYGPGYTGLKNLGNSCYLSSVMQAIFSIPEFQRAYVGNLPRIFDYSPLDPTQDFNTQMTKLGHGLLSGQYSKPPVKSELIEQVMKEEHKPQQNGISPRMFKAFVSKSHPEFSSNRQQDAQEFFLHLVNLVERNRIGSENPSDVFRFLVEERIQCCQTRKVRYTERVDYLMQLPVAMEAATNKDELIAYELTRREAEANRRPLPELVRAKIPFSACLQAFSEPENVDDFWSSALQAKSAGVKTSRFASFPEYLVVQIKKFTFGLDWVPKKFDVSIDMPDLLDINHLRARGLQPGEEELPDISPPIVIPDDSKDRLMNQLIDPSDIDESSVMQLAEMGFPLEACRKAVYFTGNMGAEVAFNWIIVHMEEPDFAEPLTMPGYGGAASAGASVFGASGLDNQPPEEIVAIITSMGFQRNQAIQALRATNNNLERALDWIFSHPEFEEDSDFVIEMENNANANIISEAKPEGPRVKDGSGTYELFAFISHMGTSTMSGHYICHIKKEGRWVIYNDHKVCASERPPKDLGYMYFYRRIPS
Test: affinity purification with mass spectrometry; IP coupled with MS (IP/MS) to find proteins that bind USP13; cells and bait form not told in the main text

“METTL3 (from UniProt Q86U44 1-580) (enzyme)” was tested, and the binding was “binds”.

No constants are given. Whether binding was seen depends on the method and setting. Binding seen in cells or lysates may run through a third protein. These calls come from enrichment with a bait or labelling near it, and not all partners need be listed.
